Some results were stated once for a whole list of compounds, not compound by compound. For some of these results: At least one compound was matched to its structure with a doubt left.
What was measured:
Assay type in all cases: in vivo
Dichromothrips corbetti = assay: Orchid thrips (Dichromothrips corbetti) floral-immersion test; conditions: 500 ppm; Dichromothrips corbetti adults on dipped orchid flowers; 72 hours
Protocol: B.6 Orchid Thrips (Dichromothrips corbetti)
Dichromothrips corbetti adults used for bioassay were obtained from a colony maintained continuously under laboratory conditions. For testing purposes, the test compound is diluted in a 1:1 mixture of acetone:water (vol:vol), plus 0.01% vol/vol Alkamuls® EL 620 surfactant.
Thrips potency of each compound was evaluated by using a floral-immersion technique. Plastic petri dishes were used as test arenas. All petals of individual, intact orchid flowers were dipped into treatment solution and allowed to dry. Treated flowers were placed into individual petri dishes along with about 20 adult thrips. The petri dishes were then covered with lids. All test arenas were held under continuous light and a temperature of about 28° C. for duration of the assay. After 3 days, the numbers of live thrips were counted on each flower, and along inner walls of each petri dish. The percentmortality was recorded 72 hours after treatment.

Myzus persicae = assay: Green peach aphid (Myzus persicae) spray test on infested bell pepper plants; conditions: 2500 ppm, after 5 days
Protocol: B.1 Green Peach Aphid (Myzus persicae)
The active compounds were formulated by a Tecan liquid handler in 100% cyclohexanone as a 10,000 ppm solution supplied in tubes. The 10,000 ppm solution was serially diluted in 100% cyclohexanone to make interim solutions. These served as stock solutions for which final dilutions were made by the Tecan in 50% acetone:50% water (v/v) into 5 or 10 ml glass vials. A nonionic surfactant (Kinetic®) was included in the solution at a volume of 0.01% (v/v). The vials were then inserted into an automated electrostatic sprayer equipped with an atomizing nozzle for application to plants/insects.
Bell pepper plants at the first true-leaf stage were infested prior to treatment by placing heavily infested leaves from the main colony on top of the treatment plants. Aphids were allowed to transfer overnight to accomplish an infestation of 30-50 aphids per plant and the host leaves were removed. The infested plants were then sprayed by an automated electrostatic plant sprayer equipped with an atomizing spray nozzle. The plants were dried in the sprayer fume hood, removed, and then maintained in a growth room under fluorescent lighting in a 24-hr photoperiod at about 25° C. and about 20-40% relative humidity. Aphid mortality on the treated plants, relative to mortality on untreated control plants, was determined after 5 days.

Anthonomus grandis = assay: Boll weevil (Anthonomus grandis) insect diet microtiter test; conditions: 500 ppm; Anthonomus grandis egg and larval mortality; 5 days
Ceratitis capitata = assay: Mediterranean fruitfly (Ceratitis capitata) insect diet microtiter test; conditions: 2500 ppm; Ceratitis capitata egg and larval mortality; 5 days
Aphis craccivora = assay: Cowpea aphid (Aphis craccivora) spray test on potted cowpea plants; conditions: 500 ppm, after 72 hours
Protocol: B.4 Cowpea Aphid (Aphis craccivora)
The active compound was dissolved at the desired concentration in a mixture of 1:1 (vol:vol) distilled water: acetone. Surfactant (Alkamuls® EL 620) was added at a rate of 0.1% (vol/vol). The test solution was prepared at the day of use.
Potted cowpea plants were colonized with approximately 50-100 aphids of various stages by manually transferring a leaf tissue cut from infested plant 24 hours before application. Plants were sprayed after the pest population has been recorded. Treated plants were maintained on light carts at about 28° C. Percent mortality was assessed after 72 hours.

Nephotettix virescens = assay: Rice green leafhopper (Nephotettix virescens) test on sprayed rice seedlings; conditions: 500 ppm; Nephotettix virescens adults on rice seedlings; after 72 hours
Protocol: B.7 Rice Green Leafhopper (Nephotettix virescens)
Rice seedlings were cleaned and washed 24 hours before spraying. The active compounds were formulated in 50:50 acetone:water (vol:vol), and 0.1% vol/vol surfactant (EL 620) was added. Potted rice seedlings were sprayed with 5 ml test solution, air dried, placed in cages and inoculated with 10 adults. Treated rice plants were kept at about 28-29° C. and relative humidity of about 50-60%. Percent mortality was recorded after 72 hours.

Heliothis virescens = assay: Tobacco budworm (Heliothis virescens) insect diet microtiter test; conditions: 2500 ppm; Heliothis virescens egg and larval mortality; 5 days
Megoura viciae = assay: Vetch aphid (Megoura viciae) broad bean leaf disk microtiter test; conditions: 2500 ppm; Megoura viciae on broad bean leaf disks; 5 days
Protocol: B.2 Vetch Aphid (Megoura viciae)
For evaluating control of vetch aphid (Megoura viciae) through contact or systemic means the test unit consisted of 24-well-microtiter plates containing broad bean leaf disks.
The compounds were formulated using a solution containing 75% v/v water and 25% v/v DMSO. Different concentrations of formulated compounds were sprayed onto the leaf disks at 2.5 μl, using a custom built micro atomizer, at two replications.
After application, the leaf disks were air-dried and 5-8 adult aphids were placed on the leaf disks inside the microtiter plate wells. The aphids were then allowed to suck on the treated leaf disks and were incubated at about 23±1° C. and about 50±5% relative humidity for 5 days. Aphid mortality and fecundity was then visually assessed.

Row | Compound | mortality in comparison with untreated controls (Dichromothrips corbetti) | mortality in comparison with untreated controls (Myzus persicae) | mortality in comparison with untreated controls (Megoura viciae) | also measured
1 | O=C(N=c1ccccn1Cc1ccc(Cl)nc1)C(F)(F)SCCCOc1ccccc1 [E2-25] | at least 75% | – | – | –
2 | CC(C)CCSC(F)(F)C(=O)N=c1ccccn1Cc1ccc(Cl)nc1 [E2-32] | at least 75% | at least 75% | – | –
3 | O=C(N=c1ccccn1Cc1ccc(Cl)nc1)C(F)(F)SCc1cccc(Cl)c1 [E2-39] | – | – | – | mortality in comparison with untreated controls (Anthonomus grandis): at least 75%; mortality in comparison with untreated controls (Ceratitis capitata): at least 75%
4 | CC(C)CCCCCOC(=O)CSC(F)(F)C(=O)N=c1ccccn1Cc1ccc(Cl)nc1 [E2-47] | at least 75% | – | – | –
5 | O=C(N=c1ccccn1Cc1ccc(Cl)nc1)C(F)(F)Sc1ccc(F)c(Cl)c1 [E2-48] | at least 75% | – | – | –
6 | O=C(N=c1ccccn1Cc1ccc(Cl)nc1)C(F)(F)S(=O)(=O)Cc1ccccc1F [E2-61] | at least 75% | – | – | mortality in comparison with untreated controls (Aphis craccivora): at least 75%
7 | O=C(N=c1ccccn1Cc1ccc(Cl)nc1)C(F)(F)S(=O)(=O)CCCOc1ccccc1 [E2-64] | at least 75% | at least 75% | – | –
8 | O=C(N=c1ccccn1Cc1ccc(Cl)nc1)C(F)(F)S(=O)(=O)Cc1cccc(Cl)c1 [E2-77] | at least 75% | at least 75% | – | –
9 | Cc1ccccc1CS(=O)(=O)C(F)(F)C(=O)N=c1ccccn1Cc1ccc(Cl)nc1 [E2-78] | – | at least 75% | – | mortality in comparison with untreated controls (Ceratitis capitata): at least 75%
10 | O=C(N=c1ccccn1Cc1ccc(Cl)nc1)C(F)(F)S(=O)(=O)Cc1ccccc1Cl [E2-79] | at least 75% | at least 75% | – | –
11 | O=C(N=c1ccccn1Cc1ccc(Cl)nc1)C(F)(F)S(=O)(=O)Cc1ccc(Cl)c(Cl)c1 [E2-80] | at least 75% | at least 75% | – | –
12 | O=C(N=c1ccccn1Cc1ccc(Cl)nc1)C(F)(F)Sc1cc(Cl)ccc1Cl [E2-84] | – | at least 75% | – | mortality in comparison with untreated controls (Anthonomus grandis): at least 75%
13 | O=C(N=c1ccccn1Cc1ccc(Cl)nc1)C(F)(F)Sc1nc(-c2ccc(Cl)cc2)cs1 [E2-86] | at least 75% | – | – | –
14 | O=C(N=c1ccccn1Cc1ccc(Cl)nc1)C(F)(F)Sc1ccccc1F [E2-91] | at least 75% | at least 75% | – | –
15 | O=C(N=c1ccccn1Cc1ccc(Cl)nc1)C(F)(F)Sc1ncc[nH]1 [E2-92] | – | at least 75% | – | mortality in comparison with untreated controls (Ceratitis capitata): at least 75%
16 | COc1cc(OC)nc(S(=O)(=O)C(F)(F)C(=O)N=c2ccccn2Cc2ccc(Cl)nc2)n1 [E2-97] | – | at least 75% | – | mortality in comparison with untreated controls (Ceratitis capitata): at least 75%
17 | O=C(N=c1ccccn1Cc1ccc(Cl)nc1)C(F)(F)S(=O)(=O)c1nc(C2CC2)n[nH]1 [E2-108] | – | at least 75% | – | mortality in comparison with untreated controls (Ceratitis capitata): at least 75%
18 | CSCC(=O)N=c1ccccn1CC1CCOC1 (stereo not shown) [E2-115] | – | – | – | mortality in comparison with untreated controls (Aphis craccivora): at least 75%
19 | C[S+]([O-])C(F)(F)C(=O)N=c1ccccn1CC1CCOC1 (stereo not shown) [E2-117] | at least 75% | – | – | mortality in comparison with untreated controls (Nephotettix virescens): at least 75%
20 | CS(=O)(=O)C(F)(F)C(=O)N=c1ccccn1CC1CCOC1 (stereo not shown) [E2-118] | – | – | – | mortality in comparison with untreated controls (Nephotettix virescens): at least 75%

Row | Compound | mortality in comparison with untreated controls (Dichromothrips corbetti) | mortality in comparison with untreated controls (Myzus persicae) | mortality in comparison with untreated controls (Megoura viciae) | also measured
21 | CCSC(F)(F)C(=O)N=c1ccccn1CC1CCOC1 (stereo not shown) [E2-122] | – | at least 75% | – | mortality in comparison with untreated controls (Anthonomus grandis): at least 75%
22 | CSC(F)(F)C(=O)N=c1ccccn1Cc1cnn(C)c1 [E2-134] | – | at least 75% | – | mortality in comparison with untreated controls (Nephotettix virescens): at least 75%
23 | CC[S+]([O-])C(F)(F)C(=O)N=c1ccccn1CC1CCOC1 (stereo not shown) [E2-136] | – | – | – | mortality in comparison with untreated controls (Nephotettix virescens): at least 75%
24 | Cc1cc(Cn2ccccc2=NC(=O)C(F)(F)S(C)(=O)=O)on1 [E2-144] | – | at least 75% | – | mortality in comparison with untreated controls (Nephotettix virescens): at least 75%
25 | CCS(=O)(=O)C(F)(F)C(=O)N=c1ccccn1CC1CCOC1 (stereo not shown) [E2-153] | – | – | – | mortality in comparison with untreated controls (Heliothis virescens): at least 75%
26 | O=C(N=c1ccccn1Cc1ccc(Cl)nc1)C(F)(F)[S+]([O-])Cc1cccc(Cl)c1 (stereo not shown) [E2-185] | – | at least 75% | at least 75% | –
27 | O=C(N=c1ccccn1Cc1ccc(Cl)nc1)C(F)(F)[S+]([O-])Cc1ccccc1Cl (stereo not shown) [E2-187] | – | at least 75% | at least 75% | –
28 | O=C(N=c1ccccn1Cc1ccc(Cl)nc1)C(F)(F)[S+]([O-])Cc1ccc(Cl)c(Cl)c1 (stereo not shown) [E2-188] | – | at least 75% | at least 75% | –
29 | O=C(N=c1ccccn1Cc1ccc(Cl)nc1)C(F)(F)[S+]([O-])Cc1ccccc1 (stereo not shown) [E2-191] | – | at least 75% | at least 75% | –
30 | O=C(N=c1ccccn1Cc1ccc(Cl)nc1)C(F)(F)[S+]([O-])c1ccc(F)c(Cl)c1 (stereo not shown) [E2-192] | – | at least 75% | at least 75% | –
31 | CCOCC[S+]([O-])C(F)(F)C(=O)N=c1ccccn1Cc1ccc(Cl)nc1 (stereo not shown) [E2-194] | – | at least 75% | at least 75% | –
32 | Cc1cccc(C[S+]([O-])C(F)(F)C(=O)N=c2ccccn2Cc2ccc(Cl)nc2)c1 (stereo not shown) [E2-200] | – | at least 75% | at least 75% | –
33 | O=C(N=c1ccccn1Cc1ccc(Cl)nc1)C(F)(F)[S+]([O-])c1cccc(Cl)c1 (stereo not shown) [E2-203] | – | at least 75% | at least 75% | –
34 | O=C(N=c1ccccn1Cc1ccc(Cl)nc1)C(F)(F)[S+]([O-])c1c(Cl)cccc1Cl (stereo not shown) [E2-205] | – | at least 75% | at least 75% | –
35 | O=C(N=c1ccccn1Cc1ccc(Cl)nc1)C(F)(F)[S+]([O-])c1ccc(Cl)cc1 (stereo not shown) [E2-207] | – | at least 75% | at least 75% | –
36 | O=C(N=c1ccccn1Cc1ccc(Cl)nc1)C(F)(F)[S+]([O-])c1ccc(C(F)(F)F)cn1 (stereo not shown) [E2-208] | – | at least 75% | at least 75% | –
37 | Cc1csc([S+]([O-])C(F)(F)C(=O)N=c2ccccn2Cc2ccc(Cl)nc2)n1 (stereo not shown) [E2-209] | – | at least 75% | at least 75% | –
38 | CCCCCCCC[S+]([O-])C(F)(F)C(=O)N=c1ccccn1Cc1ccc(Cl)nc1 (stereo not shown) [E2-211] | – | at least 75% | at least 75% | –
39 | CCOC(=O)CC(=O)N=c1ccccn1Cc1ccc(Cl)nc1 [E3-7] | – | at least 75% | – | mortality in comparison with untreated controls (Aphis craccivora): at least 75%
